Measured values reported in PMC5725709, “PufQ regulates porphyrin flux at the haem/bacteriochlorophyll branchpoint of tetrapyrrole biosynthesis via interactions with ferrochelatase” (Molecular Microbiology, 2017).
No constants are given. Whether binding was seen depends on the method and setting. In cells and extracts the contact can be indirect. A yes stands for co-enrichment or nearness to the bait. Other partners may have been found.

Sequences of proteins named here, by UniProt entry; tags and fusion partners are left off. A change or cut given only in a name is not applied to a line headed by its entry.
UniProt Q3IYK5: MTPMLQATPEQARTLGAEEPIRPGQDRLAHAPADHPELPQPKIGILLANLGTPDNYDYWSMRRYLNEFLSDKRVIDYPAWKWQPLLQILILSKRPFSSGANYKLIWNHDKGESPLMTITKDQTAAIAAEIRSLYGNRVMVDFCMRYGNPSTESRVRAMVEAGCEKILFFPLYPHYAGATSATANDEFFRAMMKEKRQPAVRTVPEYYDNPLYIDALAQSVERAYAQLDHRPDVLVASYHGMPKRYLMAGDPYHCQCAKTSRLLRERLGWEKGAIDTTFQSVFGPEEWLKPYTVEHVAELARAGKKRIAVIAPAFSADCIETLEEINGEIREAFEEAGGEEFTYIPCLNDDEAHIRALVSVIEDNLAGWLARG
UniProt P33770: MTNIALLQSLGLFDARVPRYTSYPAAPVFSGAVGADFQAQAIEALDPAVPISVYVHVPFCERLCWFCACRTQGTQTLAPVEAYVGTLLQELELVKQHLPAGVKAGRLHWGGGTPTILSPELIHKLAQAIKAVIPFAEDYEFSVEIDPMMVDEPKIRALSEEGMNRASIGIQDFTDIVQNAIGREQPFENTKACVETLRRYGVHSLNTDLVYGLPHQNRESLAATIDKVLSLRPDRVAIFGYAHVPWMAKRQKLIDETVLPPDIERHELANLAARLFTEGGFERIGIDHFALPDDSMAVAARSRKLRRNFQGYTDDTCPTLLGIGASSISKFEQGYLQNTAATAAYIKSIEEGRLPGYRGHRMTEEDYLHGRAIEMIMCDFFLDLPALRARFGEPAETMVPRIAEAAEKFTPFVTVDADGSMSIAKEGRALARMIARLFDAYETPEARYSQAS
UniProt Q3J026: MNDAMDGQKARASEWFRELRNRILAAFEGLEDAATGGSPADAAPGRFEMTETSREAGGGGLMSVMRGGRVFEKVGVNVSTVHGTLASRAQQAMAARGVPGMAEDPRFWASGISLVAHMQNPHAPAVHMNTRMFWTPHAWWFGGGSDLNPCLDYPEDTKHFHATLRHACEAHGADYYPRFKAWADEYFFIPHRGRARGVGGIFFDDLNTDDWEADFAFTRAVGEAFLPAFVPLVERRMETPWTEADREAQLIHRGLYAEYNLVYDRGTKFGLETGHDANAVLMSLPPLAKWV
UniProt Q3J2T7: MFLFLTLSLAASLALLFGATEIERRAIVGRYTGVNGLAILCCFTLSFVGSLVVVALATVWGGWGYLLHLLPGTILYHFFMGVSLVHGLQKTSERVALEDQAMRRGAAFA

What was measured:
[1] = target: FLAG-tagged ferrochelatase (N-terminal 3x FLAG-tag on FeCH) (Rhodobacter sphaeroides) (UniProt Q3IYK5); experiment: affinity purification with mass spectrometry; FLAG immunoprecipitation of β-DDM-solubilised FLAG-FeCH lysates (cells grown oxygen-limited or aerobically) on anti-FLAG M2 resin; eluates digested in solution with trypsin, peptides analysed by mass spectrometry
[2] = target: FLAG-tagged ferrochelatase (N-terminal 3x FLAG-tag on FeCH) (Rhodobacter sphaeroides) (UniProt Q3IYK5); experiment: affinity purification with mass spectrometry; FLAG immunoprecipitation of β-DDM-solubilised lysates of oxygen-limited cells on anti-FLAG M2 affinity resin, washed with 0.04% β-DDM, eluted with FLAG peptide; eluates on SDS-PAGE (Coomassie, anti-FLAG immunoblot), bands excised, in-gel tryptic digestion, nanoLC-MS/MS

Row | Substance | binding [1] | binding [2]
1 | HemN (anaerobic coproporphyrinogen oxidase) (from UniProt P33770) (enzyme) | binds | 
2 | HemF (aerobic coproporphyrinogen oxidase) (from UniProt Q3J026) (enzyme) | binds | 
3 | protein product of the RSP_6067 gene (from UniProt Q3J2T7) |  | binds
